## Percent effect of library compounds

Sequences of proteins named here, by UniProt entry; tags and fusion partners are left off.
UniProt P9WFT3, whole entry: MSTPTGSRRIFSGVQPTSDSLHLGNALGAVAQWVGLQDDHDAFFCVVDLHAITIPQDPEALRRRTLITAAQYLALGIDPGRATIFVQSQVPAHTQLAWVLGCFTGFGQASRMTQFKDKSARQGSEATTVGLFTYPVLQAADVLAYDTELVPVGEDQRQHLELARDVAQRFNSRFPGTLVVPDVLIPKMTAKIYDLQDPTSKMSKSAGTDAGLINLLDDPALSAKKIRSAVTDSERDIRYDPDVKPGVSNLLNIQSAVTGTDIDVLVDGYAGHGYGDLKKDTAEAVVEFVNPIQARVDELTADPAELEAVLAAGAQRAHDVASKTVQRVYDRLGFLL
UniProt I6X8D2, whole entry: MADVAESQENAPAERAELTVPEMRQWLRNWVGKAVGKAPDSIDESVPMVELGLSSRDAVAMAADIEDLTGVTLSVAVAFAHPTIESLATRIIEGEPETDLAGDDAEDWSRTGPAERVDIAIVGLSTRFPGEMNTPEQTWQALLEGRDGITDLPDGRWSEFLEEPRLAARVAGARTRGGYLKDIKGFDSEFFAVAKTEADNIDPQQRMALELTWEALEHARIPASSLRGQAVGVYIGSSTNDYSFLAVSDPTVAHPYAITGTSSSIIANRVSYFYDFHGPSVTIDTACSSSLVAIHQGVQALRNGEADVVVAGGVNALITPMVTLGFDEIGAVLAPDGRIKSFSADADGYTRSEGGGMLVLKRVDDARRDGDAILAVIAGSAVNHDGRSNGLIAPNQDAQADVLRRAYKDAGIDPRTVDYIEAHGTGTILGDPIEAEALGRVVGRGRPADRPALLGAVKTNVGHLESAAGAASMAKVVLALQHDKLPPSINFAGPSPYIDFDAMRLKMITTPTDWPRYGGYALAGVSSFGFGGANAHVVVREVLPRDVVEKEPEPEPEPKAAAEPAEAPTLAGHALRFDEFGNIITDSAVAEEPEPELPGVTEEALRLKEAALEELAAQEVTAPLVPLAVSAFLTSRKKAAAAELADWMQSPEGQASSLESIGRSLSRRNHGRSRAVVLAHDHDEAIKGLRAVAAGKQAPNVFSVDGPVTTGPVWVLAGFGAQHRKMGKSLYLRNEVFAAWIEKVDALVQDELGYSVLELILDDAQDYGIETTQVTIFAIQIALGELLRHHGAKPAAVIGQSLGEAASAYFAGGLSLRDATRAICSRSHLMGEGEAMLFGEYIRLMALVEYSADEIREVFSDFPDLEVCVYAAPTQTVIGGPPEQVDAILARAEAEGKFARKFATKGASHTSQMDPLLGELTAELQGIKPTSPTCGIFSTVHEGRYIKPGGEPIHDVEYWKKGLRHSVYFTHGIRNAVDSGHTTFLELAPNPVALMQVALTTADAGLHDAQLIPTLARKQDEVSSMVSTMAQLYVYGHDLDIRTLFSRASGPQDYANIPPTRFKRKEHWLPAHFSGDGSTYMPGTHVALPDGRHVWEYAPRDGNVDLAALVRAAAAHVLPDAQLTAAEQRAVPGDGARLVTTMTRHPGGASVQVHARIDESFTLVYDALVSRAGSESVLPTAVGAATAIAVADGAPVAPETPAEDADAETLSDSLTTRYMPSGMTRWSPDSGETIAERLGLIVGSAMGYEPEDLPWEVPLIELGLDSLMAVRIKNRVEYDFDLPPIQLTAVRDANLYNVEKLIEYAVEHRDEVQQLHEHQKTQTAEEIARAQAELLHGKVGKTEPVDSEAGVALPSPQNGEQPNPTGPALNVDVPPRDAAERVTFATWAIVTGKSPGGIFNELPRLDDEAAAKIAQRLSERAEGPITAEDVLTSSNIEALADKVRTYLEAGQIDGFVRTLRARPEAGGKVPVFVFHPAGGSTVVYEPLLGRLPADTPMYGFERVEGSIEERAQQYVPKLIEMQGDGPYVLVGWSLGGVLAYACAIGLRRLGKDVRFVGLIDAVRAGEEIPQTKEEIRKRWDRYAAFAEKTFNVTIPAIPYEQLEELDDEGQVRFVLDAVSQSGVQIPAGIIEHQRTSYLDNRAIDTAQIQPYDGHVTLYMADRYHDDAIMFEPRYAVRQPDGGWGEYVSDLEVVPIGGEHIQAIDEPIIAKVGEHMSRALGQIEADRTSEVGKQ
UniProt P9WNZ1, whole entry: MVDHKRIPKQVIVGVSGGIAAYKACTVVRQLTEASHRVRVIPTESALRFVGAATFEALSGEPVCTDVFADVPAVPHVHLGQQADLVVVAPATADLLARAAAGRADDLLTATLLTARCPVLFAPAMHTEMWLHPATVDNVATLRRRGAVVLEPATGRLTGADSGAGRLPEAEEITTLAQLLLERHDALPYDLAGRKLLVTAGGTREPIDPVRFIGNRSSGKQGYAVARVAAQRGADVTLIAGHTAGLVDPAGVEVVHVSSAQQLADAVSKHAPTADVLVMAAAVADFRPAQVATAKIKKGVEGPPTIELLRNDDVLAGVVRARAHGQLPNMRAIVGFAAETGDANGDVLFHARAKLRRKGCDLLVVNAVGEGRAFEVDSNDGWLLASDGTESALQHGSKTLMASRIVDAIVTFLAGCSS

A: 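Tryptophan-tRNA ligase, Mycobacterium tuberculosis (UniProt P9WFT3). Enzyme assay of tryptophanyl-tRNA synthetase; the read-out is not stated. Compounds at 10 µM. Higher most likely means stronger inhibition; the record gives no direction and few retests gave an IC50. About 65,000 compounds were tested under these conditions; 0.098% (about 64) showed 50% or more at least once.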
B: 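Polyketide synthase Pks13, Mycobacterium tuberculosis (UniProt I6X8D2). Enzyme assay of the thioesterase domain of polyketide synthase 13; the read-out is not stated. Tested at 30 µM. The record gives no direction; the compounds picked for IC50 retests had high values, so higher reads as stronger inhibition. Of about 67,000 compounds tested this way, about 300 (0.46%) reached 50% or more in at least one test.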
C: 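Coenzyme A biosynthesis protein CoaBC, Mycobacterium tuberculosis (UniProt P9WNZ1). Enzyme assay of CoaBC with a phosphate dye (Biomol Green) read at 650 nm. Tested at 30 µM. Direction is inferred from only a few compounds that gave an IC50; most scored high, so higher reads as stronger inhibition. Most strong results did not repeat in a second test. Of about 67,000 compounds tested this way, about 40 (0.06%) reached 50% or more in at least one test.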

Values are the deposited “Percent Effect”, in %.
The controls that fix the scale are not given in the record; negative values are as filed.
Compounds were drawn at random from those tested, without regard to their results.
A dash means the value is not listed here; it may have been measured.

| structure | A | B | C |
|---|---|---|---|
| `NC(=O)NC(=O)CCSCc1coc(-c2ccc(F)cc2)n1` | 0.5874 | -2.683 | 6.777 |
| `c1cc(CN2CCCC23CCCN(Cc2ccoc2)C3)ccn1` (configuration not stated) | -3.312 | -34.19 | -26.85 |
| `CC1CCN(S(=O)(=O)N2CCn3cccc3C2C)CC1` (configuration not stated) | -4.777 | 11.64 | 1.222 |
| `Cc1cc(NCc2ccccc2CN2CCCCC2)n2ncnc2n1` | 2.257 | -0.9458 | -0.7317 |
| `Cc1cc(C)n(Cc2cc(C(=O)N3CCCC3c3nccs3)n[nH]2)n1` (configuration not stated) | -0.9646 | -4.621 | 3.281 |
| `O=C(c1ccsc1)N1CCc2c(COCc3ccncc3)cncc2C1` | 2.549 | -8.519 | -0.6452 |
| `CC(NC(=O)NCc1ccoc1)c1ccc2c(c1)CC(=O)N2` (configuration not stated) | 2.901 | -14.44 | -4.779 |
| `O=C(CN1CCC(Nc2ncccn2)CC1)Nc1ccccc1` | -2.564 | -28.68 | 4.545 |
| `CCn1nc2c(cc1=O)CN(Cc1ccc(-n3cccn3)cc1)CC2` | -3.455 | 4.9 | 0.2415 |
| `CSc1ccc(-n2ccnc2-c2cc3n(n2)CCNC3)cc1` | -3.881 | -20.73 | 6.731 |
| `Cc1ccc(-c2noc(C3CCN3C(=O)c3ccn(C)n3)n2)s1` (configuration not stated) | -4.634 | -8.59 | 1.211 |
| `CN(Cc1ccc(C(N)=O)cc1)c1ccc(C(F)(F)F)cn1` | -5.045 | 2.224 | 1.008 |
| `NC(=O)C1CCCN1Cc1ccccc1NC(=O)Cc1cccs1` (configuration not stated) | -0.3358 | -12.48 | -10.58 |
| `CC(C)c1ncc2c(n1)CN(Cc1ccc3c(c1)OCCO3)CC2` | 13.19 | -30.31 | -11.24 |
| `O=C(NCc1ccncc1)N1CC(Cc2ccccc2F)C1` | -5.176 | -16.81 | 4.369 |
| `Cc1cc(C2CCC2)nc(NCCC23CCCN2CCC3)n1` | -3.791 | 0.1077 | -25.2 |
| `O=C(NCc1cccs1)C1CCCN(c2cc(-n3cncn3)ncn2)C1` (configuration not stated) | -0.5319 | -18.68 | 4.44 |
| `CCOCCCNC(=O)c1nc2c(s1)CCCN2c1ccc(C)nn1` | 0.2288 | -46.49 | 3.34 |
| `CCn1cc(-c2cc(C(F)F)n3nc(CC(=O)O)nc3n2)cn1` | - | 62.49 | -4.785 |
| `CCc1nnc2n1CCN(CC(=O)Nc1cc(C)nn1C)C2` | -1.695 | -20.52 | -1.648 |
| `CC(C)N(C)Cc1ncn2c1CN(C(=O)C1CCCO1)CCC2` (configuration not stated) | - | -4.406 | 1.856 |
| `Cc1cccc(N2CC3(CCN(S(=O)(=O)C4CC4)C3)C2)n1` | 0.6347 | -25.66 | -2.917 |
| `CC(C)c1noc(CN2CCCN(Cc3cccs3)CC2)n1` | -4.931 | -4.072 | 3.584 |
| `CCC(CC)C(=O)N1CCN(Cc2cc(-c3ccncc3)nn2C)CC1` | - | 0.6305 | 0.7353 |
| `O=C1CCC2(CCN(Cc3cscn3)CC2)CN1[C@H]1CC[C@H](O)CC1` | -9.569 | -30.99 | 3.883 |
| `Cc1cccc(C)c1Nc1noc2c1CN(C(=O)c1c[nH]nc1C)CC2` | -1.11 | 6.804 | -17.43 |
| `NCC1CCN(c2cnn(CCCn3cccn3)c(=O)c2)CC1` | 2.773 | -14.94 | -8.8 |
| `COc1ccc(C(C)NC(=O)N2CCNC(=O)CC2)cc1F` (configuration not stated) | 2.576 | 1.925 | 3.924 |
| `Cc1ccc(Oc2ncccc2C(=O)N(C)CC2OCCO2)c(C)c1` | - | -1.589 | 3.155 |
| `CCS(=O)(=O)N1C[C@H]2CN(c3cnn(C)c3)C(=O)[C@H]2C1` | -1.187 | -4.269 | - |
| `Cn1cc(CN2C[C@@H]3COC[C@]3(C(=O)N3CCCO3)C2)cn1` | -7.828 | -29.84 | 2.917 |
| `CCOC(=O)C1CCN(c2cc(C(=O)N3CCCCC3)nc(C)n2)CC1` | 0.9332 | 0.6364 | 2.659 |
| `O=C(N[C@@H]1CCC[C@@H](N2CCOCC2)[C@@H]1O)c1cnn2cccnc12` | 0.2898 | -4.892 | -0.4866 |
| `CC(C)=CCN1CCN(C(=O)C2CC2)CC1` | -4.85 | 2.553 | 3.125 |
| `CC(NC(=O)NCCCN(C)S(C)(=O)=O)c1cccc(Cl)c1` (configuration not stated) | -0.8772 | -0.6916 | 1.828 |
| `O=C(Nc1ccc(-n2cccn2)cc1)N1CCOCC(O)C1` (configuration not stated) | 2.221 | -2.982 | 1.241 |
| `Cc1ccccc1S(=O)(=O)N1CCC(c2[nH]ncc2C)C1` (configuration not stated) | - | -98.38 | 4.585 |
| `Cc1nn(C)c(C)c1NC(=O)c1cccc(CN2CC[C@H](O)C2)c1` | -3.266 | 6.635 | -1.332 |
| `O=C(NC[C@H]1OC[C@@H]2CCN(c3ncccn3)C[C@@H]21)c1ccnnc1` | -4.302 | -31.28 | -24.17 |
| `CCc1cnc2c(c1NCc1ccncc1)c(=O)n(C)c(=O)n2C` | -3.92 | -8.715 | -0.2132 |
| `Cc1ccc(CNC(=O)c2c[nH]nc2NC(=O)COCC2CC2)cc1` | -3.336 | -8.923 | 1.845 |
| `CC(=O)N(Cc1ncc(C(C)C)o1)C1CCN(Cc2cc(C)on2)C1` (configuration not stated) | -4.838 | -17.99 | 7.846 |
| `CN1CCC2(CC1)CN(C(=O)c1ccncc1)Cc1ccccc12` | 1.757 | -16.5 | -5.071 |
| `Cc1cn2nc(N3CCCC3C(=O)N3CCN(C)CC3)sc2n1` (configuration not stated) | -3.762 | -2.907 | -0.9756 |
| `c1cnc(N2CCc3onc(CN4CCCC4)c3C2)cn1` | - | -28.07 | -0.9756 |
| `CCOCC1CN(Cc2ccc3c(c2)OCO3)Cc2nccn2C1` (configuration not stated) | 6.537 | -14.54 | -2.1 |
| `Cc1cccc(-c2nc(C)nn2CC(=O)NC(C)C2CC2)c1` (configuration not stated) | -0.2921 | -27.48 | 3.742 |
| `Cc1ccc(CNC(=O)c2ccc(CNS(C)(=O)=O)o2)cc1F` | 5.462 | -12.77 | 12.19 |
| `COc1cccc2c1N(S(=O)(=O)c1cc(C(=O)O)cs1)CCC2` | -2.279 | -64.32 | -4.073 |
| `COCCN1CCN(S(=O)(=O)C2CC2)Cc2cccnc21` | - | -3.558 | 3.659 |
| `COC(=O)CCNC(=O)c1coc(COc2ccc(F)cc2)n1` | 0.277 | -21.3 | 5.325 |
| `Cc1ccc(CN2CCC3(CC2)C(=O)N(CC(C)C)CCN3C)o1` | -4.446 | -15.61 | 5.852 |
| `CCc1nc2c(NCC3COc4cc(OC)ccc4C3)ncnc2o1` (configuration not stated) | -3.32 | -38.86 | -2.263 |
| `O=C(C1CC1)N1CCCC1C1CCN(Cc2ccccc2)CC1` (configuration not stated) | 2.013 | -48.26 | -1.215 |
| `Cn1ccc(CN2CCC(COC3CCCC3)CC2)cc1=O` | -2.047 | 0.625 | 8.877 |
| `CCSCc1ccnc(NC(=O)C2CCCO2)c1` (configuration not stated) | -5.688 | -28.49 | 1.071 |
| `c1cnc(CC2CCN(c3cnccn3)CC2)cn1` | -5.774 | 7.704 | 8.314 |
| `CC(C)N(C)Cc1cc(=O)n2c(n1)CN(C(=O)c1ccc[nH]1)CCC2` | - | -6.798 | 2.599 |
| `CC(C)[C@@H](C)NC1CCN(c2ccc(-n3ccnc3)cc2)CC1` | -0.7322 | -9.83 | 0.3589 |
| `Cc1cccn2c(CC(=O)N3CCC(CCn4cccn4)CC3)cnc12` | 5.556 | -5.922 | 3.169 |
| `OC(CNCCn1cccn1)c1ccc(F)c(F)c1` (configuration not stated) | -5.321 | -18.63 | 2.738 |

The values are deposited in ChEMBL (CHEMBL3988442, “University of Dundee, Small-Polar-MMV Screening Library” (2021)).